Test results published in article PMC5015019.
No constants are given. Whether binding was seen depends on the method and setting. Binding seen in cells or lysates may run through a third protein. Some binding calls cover weakened binding; strength is not graded here. Sequences can lack the tags named with a protein.

Protein sequences, listed by entry. Tags and fused reporters are not part of them.
UniProt P08670: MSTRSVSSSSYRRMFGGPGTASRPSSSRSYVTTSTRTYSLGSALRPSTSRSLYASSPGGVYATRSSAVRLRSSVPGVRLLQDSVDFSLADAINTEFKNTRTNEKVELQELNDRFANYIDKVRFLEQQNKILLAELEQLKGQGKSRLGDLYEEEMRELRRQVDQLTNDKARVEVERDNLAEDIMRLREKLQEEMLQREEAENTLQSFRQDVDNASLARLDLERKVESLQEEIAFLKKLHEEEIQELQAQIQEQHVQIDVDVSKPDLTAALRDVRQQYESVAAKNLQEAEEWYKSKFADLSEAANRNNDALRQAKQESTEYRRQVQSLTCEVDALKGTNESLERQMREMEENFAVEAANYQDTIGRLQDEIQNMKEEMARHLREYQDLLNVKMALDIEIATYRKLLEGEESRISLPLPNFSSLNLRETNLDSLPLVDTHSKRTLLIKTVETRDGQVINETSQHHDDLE

Columns and labels:
[1] = target: T1, M2BP (251–585), myc-tagged truncation mutant (UniProt Q08380); test: co-IP; immunoprecipitation from cells expressing M2BP (251–585), VIM and Gag (Supplementary Fig. 6)
T1 sequence: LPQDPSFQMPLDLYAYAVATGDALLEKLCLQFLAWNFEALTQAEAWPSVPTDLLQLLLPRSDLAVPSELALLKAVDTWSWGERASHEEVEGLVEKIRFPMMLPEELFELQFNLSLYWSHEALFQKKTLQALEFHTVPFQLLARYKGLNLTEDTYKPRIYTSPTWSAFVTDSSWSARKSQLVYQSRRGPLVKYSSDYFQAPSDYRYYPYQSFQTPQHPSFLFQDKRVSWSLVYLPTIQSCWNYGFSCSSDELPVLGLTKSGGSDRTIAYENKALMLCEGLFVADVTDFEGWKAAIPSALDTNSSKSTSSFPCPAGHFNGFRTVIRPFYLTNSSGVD

[2] = target: T2, Mac-2 binding protein (M2BP), myc-tagged (UniProt Q08380); test: co-IP; HEK293T co-transfected with M2BP-myc and Flag-VIM or pHIV-1_(NL4-3)ΔEnv-luc; M2BP immunoprecipitated (anti-c-myc agarose, 4 °C, 4 h), washes in TBST, Western blot (Fig. 8A,B)
T2 sequence: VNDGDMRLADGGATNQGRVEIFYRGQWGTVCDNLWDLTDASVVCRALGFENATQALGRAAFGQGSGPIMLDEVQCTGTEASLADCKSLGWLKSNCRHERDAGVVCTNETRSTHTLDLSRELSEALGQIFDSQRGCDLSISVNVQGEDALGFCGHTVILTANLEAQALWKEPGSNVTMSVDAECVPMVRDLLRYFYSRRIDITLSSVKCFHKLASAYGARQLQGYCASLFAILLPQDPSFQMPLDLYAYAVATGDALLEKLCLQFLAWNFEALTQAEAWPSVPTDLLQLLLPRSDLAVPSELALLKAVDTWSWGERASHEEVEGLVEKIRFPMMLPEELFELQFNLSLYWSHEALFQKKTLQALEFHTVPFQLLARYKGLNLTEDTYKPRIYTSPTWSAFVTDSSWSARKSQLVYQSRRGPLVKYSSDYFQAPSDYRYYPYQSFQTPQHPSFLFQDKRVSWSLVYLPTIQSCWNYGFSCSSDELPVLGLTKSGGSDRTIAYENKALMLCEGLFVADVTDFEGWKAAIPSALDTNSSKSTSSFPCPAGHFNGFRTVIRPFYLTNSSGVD

[3] = target: T2, Mac-2 binding protein (M2BP), myc-tagged; test: co-IP; HEK293T expressing M2BP-myc, Flag-VIM and HIV-1 Gag together; lysates immunoprecipitated with the antibodies indicated in the figure, Western blot (Fig. 8C; Supplementary Fig. 5)
[4] = target: T3, M2BP (124–585), myc-tagged truncation mutant (UniProt Q08380); test: co-IP; immunoprecipitation from cells expressing M2BP (124–585), VIM and Gag (Supplementary Fig. 6)
T3 sequence: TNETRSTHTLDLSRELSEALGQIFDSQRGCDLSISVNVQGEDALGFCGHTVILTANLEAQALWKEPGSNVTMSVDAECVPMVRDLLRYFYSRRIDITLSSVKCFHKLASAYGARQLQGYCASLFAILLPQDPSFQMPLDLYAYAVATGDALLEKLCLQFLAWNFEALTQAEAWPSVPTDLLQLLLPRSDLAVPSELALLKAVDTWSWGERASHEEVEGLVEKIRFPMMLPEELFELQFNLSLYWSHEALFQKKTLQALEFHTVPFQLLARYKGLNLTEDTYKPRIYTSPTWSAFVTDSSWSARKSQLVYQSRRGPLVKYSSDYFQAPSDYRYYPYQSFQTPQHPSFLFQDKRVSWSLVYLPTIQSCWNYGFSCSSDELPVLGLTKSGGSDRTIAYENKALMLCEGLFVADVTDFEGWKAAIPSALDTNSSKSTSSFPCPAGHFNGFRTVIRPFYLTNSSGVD

Measured: binding

Vimentin (VIM), Flag-tagged (from UniProt P08670 1-466)
binds: all assays above
